Results from publication doi:10.1101/249060 (bioRxiv, 2018).
No constants are given. Whether binding was seen depends on the method and setting. A result given as binding can be weak or reduced; the word gives no strength. For part of these data: In cells and extracts the contact can be indirect.

Experiments:
[1] = biological target: ParP-His6 (Rv3213c) (Mycobacterium tuberculosis) (UniProt O05853); test: SEC
[2] = biological target: ParP-His6 (Rv3213c) (Mycobacterium tuberculosis) (UniProt O05853); test: negative-stain EM
[3] = biological target: ParP-His6 (Rv3213c) (Mycobacterium tuberculosis) (UniProt O05853); test: pull-down

Measured: binding

PafE, wild type, untagged, co-expressed with ParP-His6 (from UniProt P9WKX3 1-174)
binds: all assays above
